# Where a name gives a salt, the structure may show the parent alone. ± gives the standard deviation of the averaged measurements. Some of the results follow. The data scatter; read single values as rough.
# Experiments:
# hAMSC donor 1 [1] = test: Hoechst total cell count ratio vs vehicle control; higher = more cells (less toxicity)
# hAMSC donor 2 [2] = test: as above
# hAMSC donor 1 [3] = test: transgenic luciferase activity (RLU/mg protein) fold change vs vehicle control (ratio); higher = more transgene expression
# hAMSC donor 2 [4] = test: as above
# hAMSC donor 1 [5] = test: transfection efficiency (EGFP+ cells / Hoechst count) fold change vs vehicle control (ratio); hAMSC are human adipose-derived mesenchymal stem cells given an EGFP-luciferase plasmid by lipofection; higher = enhanced transfection
# hAMSC donor 2 [6] = test: as above
# [7] = priming compound concentration 0.2 µM
# [8] = priming compound concentration 1.7 µM
# [9] = priming compound concentration 13 µM
SMILES,Hoechst total cell count ratio (hAMSC donor 1 [1]; [7]),Hoechst total cell count ratio (hAMSC donor 1 [1]; [8]),Hoechst total cell count ratio (hAMSC donor 1 [1]; [9]),Hoechst total cell count ratio (hAMSC donor 2 [2]; [7]),Hoechst total cell count ratio (hAMSC donor 2 [2]; [8]),Hoechst total cell count ratio (hAMSC donor 2 [2]; [9]),transgenic luciferase activity (hAMSC donor 1 [3]; [7]),transgenic luciferase activity (hAMSC donor 1 [3]; [8]),transgenic luciferase activity (hAMSC donor 2 [4]; [7]),transgenic luciferase activity (hAMSC donor 2 [4]; [8]),transgenic luciferase activity (hAMSC donor 2 [4]; [9]),transfection efficiency (hAMSC donor 1 [5]; [7]),transfection efficiency (hAMSC donor 1 [5]; [8]),transfection efficiency (hAMSC donor 1 [5]; [9]),transfection efficiency (hAMSC donor 2 [6]; [7]),transfection efficiency (hAMSC donor 2 [6]; [8]),transfection efficiency (hAMSC donor 2 [6]; [9]),transgenic luciferase activity (hAMSC donor 1 [3]; [9])
c1ccc(Cn2ccnc2)cc1 [Benzylimidazole],1.47 ± 0.094,1.23 ± 0.092,1.29 ± 0.078,1.02 ± 0.042,1.17 ± 0.032,1.02 ± 0.15,0.742 ± 0.13,2.6 ± 0.15,1.09 ± 0.28,1.19 ± 0.079,0.843 ± 0.23,1.03 ± 0.14,1 ± 0.26,1.14 ± 0.17,1.51 ± 0.35,1.19 ± 0.11,1.08 ± 0.13,
O=C1CN=C(c2ccccc2)c2cc([N+](=O)[O-])ccc2N1 [Nitrazepam],1.29 ± 0.21,1.27 ± 0.089,1.34 ± 0.23,1.2 ± 0.12,0.769 ± 0.03,1.02 ± 0.18,0.583 ± 0.26,0.726 ± 0.11,,0.632 ± 0.13,0.495 ± 0.04,1.01 ± 0.29,1.12 ± 0.13,0.861 ± 0.1,0.865 ± 0.24,1.49 ± 0.052,1.15 ± 0.049,
CCCC(C)(COC(N)=O)COC(=O)NC(C)C (centres undefined) [Carisoprodol],1 ± 0.11,1.24 ± 0.21,1.41 ± 0.044,1.13 ± 0.075,0.723 ± 0.15,1.28 ± 0.16,0.543 ± 0.14,,0.75 ± 0.074,0.637 ± 0.14,,1.49 ± 0.18,1.34 ± 0.41,1.27 ± 0.34,0.97 ± 0.098,1.38 ± 0.15,0.881 ± 0.19,8.63 ± 2.8
CN1CC[C@@H](c2ccc(F)cc2)[C@H](COc2ccc3c(c2)OCO3)C1 [N-Methylparoxetine],1.16 ± 0.1,1.29 ± 0.11,1.4 ± 0.11,1.07 ± 0.051,1.07 ± 0.065,1.47 ± 0.063,,0.184 ± 0.05,0.892 ± 0.41,0.675 ± 0.085,0.558 ± 0.018,1.05 ± 0.1,0.624 ± 0.3,0.542 ± 0.23,1.38 ± 0.19,1.1 ± 0.13,0.588 ± 0.13,0.614 ± 0.38
CCOC(=O)c1cncn1[C@H](C)c1ccccc1 [Etomidate],1.38 ± 0.031,1.34 ± 0.082,1.13 ± 0.17,1.6 ± 0.074,0.896 ± 0.2,1.29 ± 0.2,0.471 ± 0.08,0.581 ± 0.21,,,1.27 ± 0.38,1.07 ± 0.16,1.17 ± 0.19,1.07 ± 0.14,0.852 ± 0.11,1.39 ± 0.13,1.47 ± 0.27,0.803 ± 0.48
O=C1CC[C@@]2(O)[C@H]3Cc4ccc(O)c5c4[C@@]2(CCN3CC2CC2)[C@H]1O5 [Naltrexone hydrochloride],1.13 ± 0.07,1.2 ± 0.13,1.24 ± 0.15,1.3 ± 0.5,1.3 ± 0.043,1.45 ± 0.15,,0.25 ± 0.03,1.14 ± 0.12,0.737 ± 0.022,0.573 ± 0.096,0.924 ± 0.28,1.15 ± 0.35,0.97 ± 0.063,1.14 ± 0.22,1.1 ± 0.015,0.988 ± 0.26,1.02 ± 0.25
C[C@]12C/C(=C/O)C(=O)C[C@@H]1CC[C@@H]1[C@@H]2CC[C@@]2(C)[C@H]1CC[C@]2(C)O [Oxymetholone],1.05 ± 0.13,1.12 ± 0.047,1.17 ± 0.19,1.12 ± 0.19,0.772 ± 0.043,0.697 ± 0.27,0.935 ± 0.3,0.997 ± 0.55,,1.53 ± 0.17,0.532 ± 0.085,0.961 ± 0.22,1.17 ± 0.13,1.02 ± 0.041,1.24 ± 0.32,1.29 ± 0.091,1.17 ± 0.28,
CN(C)C(=O)Oc1ccc[n+](C)c1 [Pyridostigmine bromide],1.37 ± 0.15,1.22 ± 0.093,1.28 ± 0.16,1.15 ± 0.049,1.27 ± 0.029,1.16 ± 0.16,,1.19 ± 0.53,0.81 ± 0.1,0.577 ± 0.067,0.475 ± 0.082,0.849 ± 0.076,1.2 ± 0.29,1.05 ± 0.12,0.939 ± 0.12,0.943 ± 0.09,1.11 ± 0.25,0.398 ± 0.13
C=C(C)CN1CC[C@@]23c4c5ccc(O)c4O[C@H]2c2[nH]c4ccccc4c2C[C@]3(O)C1C5 [SDM25N hydrochloride],1.44 ± 0.14,1.28 ± 0.21,1.02 ± 0.074,1.19 ± 0.32,0.809 ± 0.028,0.896 ± 0.14,0.474 ± 0.11,0.692 ± 0.2,,,1.08 ± 0.25,0.98 ± 0.072,1.11 ± 0.24,0.842 ± 0.33,1.08 ± 0.06,0.899 ± 0.1,1.01 ± 0.17,0.655 ± 0.17
FC(F)(F)c1cccc(N2CCNCC2)c1 [TFMPP hydrochloride],1.11 ± 0.19,1.07 ± 0.15,1.01 ± 0.11,1.41 ± 0.15,1.1 ± 0.051,1.1 ± 0.046,1.2 ± 0.52,1.01 ± 0.12,0.66 ± 0.17,0.59 ± 0.12,0.71 ± 0.19,0.709 ± 0.17,0.985 ± 0.21,1.25 ± 0.046,0.923 ± 0.12,0.987 ± 0.021,1.17 ± 0.31,1.17 ± 0.81
C[C@]12CC[C@H]3[C@@H](CCC4=CC(=O)CC[C@@]43C)[C@@H]1CC[C@@H]2O [Testosterone],1.43 ± 0.047,1.04 ± 0.13,1.27 ± 0.21,1.1 ± 0.12,1.39 ± 0.12,0.886 ± 0.46,0.625 ± 0.24,1.46 ± 0.76,0.736 ± 0.11,0.8 ± 0.16,0.961 ± 0.33,1.03 ± 0.13,0.976 ± 0.13,0.974 ± 0.19,0.844 ± 0.1,0.742 ± 0.072,1.19 ± 0.25,
C=C(C)[C@@H]1[C@H]2OC(=O)[C@@H]1[C@]1(O)C[C@H]3O[C@]34C(=O)O[C@H]2[C@]14C.CC(C)(O)[C@@H]1[C@H]2OC(=O)[C@@H]1[C@]1(O)C[C@H]3O[C@]34C(=O)O[C@H]2[C@]14C [Picrotin - Picrotoxinin],1.02 ± 0.051,1.285 ± 0.0066,1.08 ± 0.13,1.67 ± 0.48,0.915 ± 0.065,0.954 ± 0.033,0.704 ± 0.23,1.54 ± 0.62,1.2 ± 0.38,0.76 ± 0.038,1.93 ± 1.4,1.22 ± 0.077,0.978 ± 0.16,1.42 ± 0.38,0.729 ± 0.15,0.915 ± 0.093,1.34 ± 0.21,0.578 ± 0.39
C#CCN(C)[C@H](C)Cc1ccccc1 [Selegiline hydrochloride],1.04 ± 0.046,1.37 ± 0.21,1.08 ± 0.12,1.25 ± 0.35,1.07 ± 0.11,1.08 ± 0.055,0.91 ± 0.37,1.34 ± 0.86,0.639 ± 0.19,0.439 ± 0.039,0.79 ± 0.25,0.995 ± 0.095,0.83 ± 0.2,1.22 ± 0.43,1.06 ± 0.15,0.966 ± 0.09,1.13 ± 0.16,0.143 ± 0.061

# 2 entries drawn at random from those above:
SMILES,Hoechst total cell count ratio (hAMSC donor 1 [1]; [7]),Hoechst total cell count ratio (hAMSC donor 1 [1]; [8]),Hoechst total cell count ratio (hAMSC donor 1 [1]; [9]),Hoechst total cell count ratio (hAMSC donor 2 [2]; [7]),Hoechst total cell count ratio (hAMSC donor 2 [2]; [8]),Hoechst total cell count ratio (hAMSC donor 2 [2]; [9]),transgenic luciferase activity (hAMSC donor 1 [3]; [7]),transgenic luciferase activity (hAMSC donor 1 [3]; [8]),transgenic luciferase activity (hAMSC donor 2 [4]; [7]),transgenic luciferase activity (hAMSC donor 2 [4]; [8]),transgenic luciferase activity (hAMSC donor 2 [4]; [9]),transfection efficiency (hAMSC donor 1 [5]; [7]),transfection efficiency (hAMSC donor 1 [5]; [8]),transfection efficiency (hAMSC donor 1 [5]; [9]),transfection efficiency (hAMSC donor 2 [6]; [7]),transfection efficiency (hAMSC donor 2 [6]; [8]),transfection efficiency (hAMSC donor 2 [6]; [9]),transgenic luciferase activity (hAMSC donor 1 [3]; [9])
c1ccc(Cn2ccnc2)cc1 [Benzylimidazole],1.47 ± 0.094,1.23 ± 0.092,1.29 ± 0.078,1.02 ± 0.042,1.17 ± 0.032,1.02 ± 0.15,0.742 ± 0.13,2.6 ± 0.15,1.09 ± 0.28,1.19 ± 0.079,0.843 ± 0.23,1.03 ± 0.14,1 ± 0.26,1.14 ± 0.17,1.51 ± 0.35,1.19 ± 0.11,1.08 ± 0.13,
C=C(C)CN1CC[C@@]23c4c5ccc(O)c4O[C@H]2c2[nH]c4ccccc4c2C[C@]3(O)C1C5 [SDM25N hydrochloride],1.44 ± 0.14,1.28 ± 0.21,1.02 ± 0.074,1.19 ± 0.32,0.809 ± 0.028,0.896 ± 0.14,0.474 ± 0.11,0.692 ± 0.2,,,1.08 ± 0.25,0.98 ± 0.072,1.11 ± 0.24,0.842 ± 0.33,1.08 ± 0.06,0.899 ± 0.1,1.01 ± 0.17,0.655 ± 0.17

# — the supplement of paper PMC7238544
